PubChem BioAssay AID1259425 | University of Nebraska Medical Center | 2018

Purpose: 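Compare each knockdown with KSR1 silencing using changes in marker transcripts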 (primary screen)
Cell system: HCT116 human colon cancer cells
Knock-down reagent: siRNA pool against human genes, 50 nM siRNA
Measurement: 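mRNA of six signature genes measured together by branched-DNA assay after 50 nM siRNA pool, blank removed, divided by geometric mean of two housekeeping genes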
Scale: BNIP3L mRNA: higher = more BNIP3L transcript after knockdown; NDRG1 mRNA: higher = more NDRG1 transcript after knockdown; BNIP3 mRNA: higher = more BNIP3 transcript after knockdown
The whole screen tested about 14,000 reagents; below is a random part of them. Not all columns of the deposit are shown. The record does not give: the time to read-out.

target gene	PubChem SID	BNIP3L mRNA, set 1	NDRG1 mRNA, set 1	BNIP3 mRNA, set 1
FAM32A	SID363998594	0.0619	0.126	0.573
NFE2	SID363996992	0.0588	0.176	0.275
DCTN2	SID363997211	0.079	0.0562	0.19
PCDHB3	SID364001264	0.198	0.192	0.271
FCER2	SID363993214	0.0866	0.133	0.206
SRSF3	SID363994166	0.232	0.193	0.299
GPRIN2	SID363999039	0.0932	0.139	0.23
NMD3	SID363999735	0.0706	0.183	0.338
AP2B1	SID363992566	0.0608	0.26	0.307
PNPLA6	SID363997482	0.0849	0.13	0.25
NUP54	SID364000307	0.0886	0.18	0.326
DKK1	SID363998166	0.18	0.414	0.308
PLAAT2	SID364000607	0.215	0.237	0.48
HSD3B1	SID363992149	0.1	0.0212	0.371
PTDSS1	SID363999084	0.272	0.23	0.287
PSMA7	SID363993949	0.31	1.08	0.416
TESK1	SID363997107	0.0957	0.176	0.318
BTG2	SID363997534	0.0487	0.266	0.201
TSPYL1	SID364005472	0.263	0.547	0.276
HOXB8	SID364002680	0.218	0.272	0.546

Ordered by “NDRG1 mRNA, set 1” (lowest first): 2 of the entries above.
target gene	PubChem SID	BNIP3L mRNA, set 1	NDRG1 mRNA, set 1	BNIP3 mRNA, set 1
BTG2	SID363997534	0.0487	0.266	0.201
TSPYL1	SID364005472	0.263	0.547	0.276
